# PubChem BioAssay AID1259425 – University of Nebraska Medical Center – 2018
# Test: 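Find knockdowns that reproduce the gene expression pattern seen when KSR1 is lost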 (primary screen)
# Cell system: HCT116 human colon cancer cells
# Reagents: siRNA pool against human genes, 50 nM siRNA
# Measured: 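mRNA of six signature genes measured together by branched-DNA assay after 50 nM siRNA pool, blank removed, divided by geometric mean of two housekeeping genes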
# Reading the numbers: BNIP3L mRNA: higher = more BNIP3L transcript after knockdown; NDRG1 mRNA: higher = more NDRG1 transcript after knockdown; BNIP3 mRNA: higher = more BNIP3 transcript after knockdown; ALDOC mRNA: higher = more ALDOC transcript after knockdown; ACSL5 mRNA: higher = more ACSL5 transcript after knockdown
# The whole screen tested about 14,000 reagents; below is an unselected part. Reagents against one gene are numbered here. Not stated in the record: the time to read-out.
Target gene,pool no.,"BNIP3L mRNA, set 1","NDRG1 mRNA, set 1","BNIP3 mRNA, set 1","ALDOC mRNA, set 1","ACSL5 mRNA, set 1"
HEATR3 (GeneID 55027),1,0.0942,0.212,0.369,0.0595,0.133
SLC41A3 (GeneID 54946),1,0.144,0.572,0.289,0.0371,0.391
FN1 (GeneID 2335),1,0.113,0.181,0.288,0.0234,0.26
FGFRL1 (GeneID 53834),1,0.0752,0.161,0.335,0.0133,0.162
VPS41 (GeneID 27072),1,0.142,0.255,0.479,0.0422,0.181
SELE (GeneID 6401),1,0.137,0.218,0.215,0.00856,0.29
SLC40A1 (GeneID 30061),1,0.111,0.239,0.24,0.0198,0.228
SURF2 (GeneID 6835),1,0.208,0.7,0.331,0.0238,0.192
RSBN1 (GeneID 54665),1,0.0758,0.296,0.394,0.034,0.156
ARHGAP5 (GeneID 394),1,0.0759,0.181,0.308,0.0233,0.106
PCDHGA9 (GeneID 56107),1,0.134,0.314,0.464,0.0423,0.157
HHLA1 (GeneID 10086),1,0.229,0.053,0.388,0.0304,0.163
HEXIM1 (GeneID 10614),1,0.0915,0.414,0.325,0.0354,0.138
KDM5D (GeneID 8284),1,0.0823,0.368,0.375,0.0579,0.153
CTDSP1 (GeneID 58190),1,0.0718,0.169,0.203,0.0262,0.19
CPA6 (GeneID 57094),1,0.0659,0.229,0.26,0.0122,0.237
GHSR (GeneID 2693),1,0.179,0.93,0.447,0.0511,0.298
IGHG4 (GeneID 3503),1,0.0953,0.803,0.392,0.0492,0.128
KMT2C (GeneID 58508),1,0.0821,0.513,0.322,0.025,0.203
SGCB (GeneID 6443),1,0.0845,0.317,0.344,0.0155,0.193
PRICKLE4 (GeneID 29964),1,0.17,0.231,0.373,0.014,0.064
RTL10 (GeneID 79680),1,0.216,0.909,0.216,0.112,0.108

Part of the list above, reduced to “BNIP3L mRNA, set 1”:
SLC40A1 (GeneID 30061)	0.111
SURF2 (GeneID 6835)	0.208
RSBN1 (GeneID 54665)	0.0758
ARHGAP5 (GeneID 394)	0.0759
PCDHGA9 (GeneID 56107)	0.134
HHLA1 (GeneID 10086)	0.229
HEXIM1 (GeneID 10614)	0.0915
KDM5D (GeneID 8284)	0.0823
CTDSP1 (GeneID 58190)	0.0718

More entries:
Target gene,pool no.,"BNIP3L mRNA, set 1","NDRG1 mRNA, set 1","BNIP3 mRNA, set 1","ALDOC mRNA, set 1","ACSL5 mRNA, set 1"
KRTAP9-3 (GeneID 83900),1,0.252,0.259,0.439,0.0692,0.273
DRG1 (GeneID 4733),1,0.0958,0.0579,0.312,0.0201,0.112
DPH1 (GeneID 1801),1,0.122,0.175,0.296,0.0217,0.263
ULBP3 (GeneID 79465),1,0.355,0.424,0.407,0.0752,0.161
SIGLEC9 (GeneID 27180),1,0.0781,0.0547,0.388,0.0197,0.0911
LSAMP (GeneID 4045),1,0.0552,0.186,0.312,0.0135,0.183
PGM5 (GeneID 5239),1,0.455,0.236,0.625,0.103,0.119
NUB1 (GeneID 51667),1,0.234,0.372,0.293,0.0263,0.55
DNAJC8 (GeneID 22826),1,0.113,0.367,0.382,0.0574,0.295
DNAJC6 (GeneID 9829),1,0.104,0.785,0.382,0.0185,0.721
DKKL1 (GeneID 27120),1,0.0807,0.251,0.307,0.0317,0.1
RGS7 (GeneID 6000),1,0.226,0.393,0.75,0.0868,0.255
SLC26A3 (GeneID 1811),1,0.159,0.161,0.45,0.0374,0.114
CYB5R4 (GeneID 51167),1,0.09,0.537,0.336,0.0468,0.335
RAPGEF3 (GeneID 10411),1,0.125,0.267,0.402,0.0219,0.522
RNF17 (GeneID 56163),1,0.0594,0.125,0.259,0.0289,0.0864
RNF17 (GeneID 56163),2,0.0785,0.0939,0.224,0.0255,0.175
FAM124B (GeneID 79843),1,0.104,0.191,0.323,0.0296,0.218
PRKAR2A (GeneID 5576),1,0.072,0.0776,0.364,0.00684,0.224
WDR55 (GeneID 54853),1,0.12,0.184,0.345,0.0172,0.327
SMARCD3 (GeneID 6604),1,0.043,0.0785,0.283,0.00793,0.277
SPO11 (GeneID 23626),1,0.0797,0.0758,0.237,0.0123,0.104
FAM89B (GeneID 23625),1,0.141,0.178,0.417,0.0555,0.133
TPP1 (GeneID 1200),1,0.222,0.269,0.826,0.0392,0.162
FN3KRP (GeneID 79672),1,0.101,0.151,0.218,0.00524,0.269
HDAC8 (GeneID 55869),1,0.0852,0.228,0.282,0.0142,0.19
PACS2 (GeneID 23241),1,0.102,0.0824,0.377,0.0179,0.0532
ENPP1 (GeneID 5167),1,0.11,0.161,0.314,0.0655,0.151
BMP1 (GeneID 649),1,0.088,0.166,0.268,0.0298,0.0844
PROSER1 (GeneID 80209),1,0.0579,0.248,0.449,0.0897,0.128
FAM20C (GeneID 56975),1,0.157,0.347,0.244,0.0296,0.193
SSR4 (GeneID 6748),1,0.0848,0.0815,0.213,0.0111,0.237
DPYSL4 (GeneID 10570),1,0.155,0.232,0.284,0.0426,0.152
CTAG1B (GeneID 1485),1,0.548,0.475,0.662,0.147,0.558
CCM2 (GeneID 83605),1,0.0757,0.193,0.406,0.0433,0.323
RBM47 (GeneID 54502),1,0.0787,0.249,0.39,0.0455,0.123
CD40LG (GeneID 959),1,0.0509,0.107,0.238,0.0168,0.126
TRIM28 (GeneID 10155),1,0.0655,0.113,0.196,0.034,0.228
LPAR1 (GeneID 1902),1,0.256,0.148,0.292,0.044,0.134
ATF6 (GeneID 22926),1,0.0849,0.225,0.311,-0.00319,0.295
CDCA7 (GeneID 83879),1,0.15,0.266,0.153,0.0306,0.211
